Test results reported in patent publication US20110151455A1, “Fish-ribosyn for antibiotic susceptibility testing” (University of South Florida, priority 2006, published 2011).
At least one structure is not confirmed: it was looked up by name or label, or the drawing left a doubt.

Columns and labels:
[1] = tested on: A. baumannii^T; assay: FISH-RiboSyn antibiotic susceptibility testing (rate of ribosome synthesis, pre-16S rRNA); type: cell-based, Acinetobacter baumannii; details: summary of susceptibility/resistance indicators
Description: (§1) Sample collection. When it was observed that a culture was in mid-log growth phase (OD of approximately 0.4) 50 mL of the culture was transferred to a sterile flask and subjected to chloramphenicol at a final concentration of 200 mg/L. Samples (1 mL) were collected from the sub-culture every five minutes (including a sample at time zero) for a total of 20 minutes. Each sample was centrifuged at 10,000 G for 2 minutes, the supernatant was decanted, and the resulting cell pellet was resuspended in 1 mL of 4% PFA for 12-24 hours. The samples were centrifuged and supernatant decanted, as previously described, and resuspended in 2 mL of ethanol PBS (EtOH-PBS). The samples were stored at −20° C. until further analysis.
(§2) To test the effects of the antibiotic doxycycline, doxycycline (Fisher Scientific) stock solution (1 mg/mL) was added to 100-mL of fresh, sterile nutrient broth for a final concentration of 8 μg/mL. A sample from an actively growing culture (10 mL) was added to the doxycycline/nutrient broth for a final volume of 110 mL. The aforementioned transfers were performed for both the resistant strain A. baumannii CBD1311 (OD=0.378) and a susceptible strain A. baumannii^T (OD=0.324). […] Transfers were performed for A. baumannii CBD1311 (OD=0.338) and A. baumannii^T (OD=0.365) and the dilutions were sufficient to ensure that the culture was below a McFarland standard of 0.5. Additionally, controls were implemented for each transfer where an additional 10 mL of the appropriate culture was combined with 100 mL of fresh sterile nutrient broth without an antibiotic. All cultures were incubated at 32° C. and shaken continuously (200 rpm).
(§3) A fluorescently-labeled oligonucleotide hybridization probe, Acin1543, targeting the pre-16S rRNA for members of the genus Acinetobacter was synthesized (5′-[…]-3′) (SEQ ID NO:1) and conjugated with the cyanine dye, Cy3, before purification with oligonucleotide probe purification cartridges (Oerther et al. (2000b)). Fluorescently labeled probes were diluted to 50 ng/μL with RNase-free water and stored at −20° C. in the dark. Fixed samples were applied to a sample well on a 10 well Heavy Teflon Coated microscope slide (Cel-Line Associates, New Field, N.J.) and air-dried. After dehydration with an increasing ethanol series (50, 80, 95% [vol/vol] ethanol, 1 min each), each sample well was covered with a mixture of 18 μL of hybridization buffer (20% [vol/vol] formamide, 0.9 M NaC1, 100 mM Tris HCl [pH 7.0], 0.1% SDS) (DelosReyes et al. (1997)) and 2 μL of the stock fluorescently labeled oligonucleotide probe. The hybridizations were conducted in a moisture chamber containing excess hybridization buffer (to prevent dehydration of buffer on sample wells) for 1.5 h, in the dark, at 46° C. The slides were washed for 30 min at 48° C. with 50 mL of pre-warmed washing buffer solution (215 mM NaCl, 20 mM Tris HCl [pH 7.0], 0.1% SDS, and 5 mM EDTA) (DelosReyes et al. (1997)). Fixed, hybridized cells were mounted with Type FF immersion oil (Cargille, Cedar Grove, N.J.) and a cover slip. Cells were stained with 4′, 6-diamidino-2-phenylindole (DAPI) at a concentration of 1 μg/mL for 1 minute and rinsed with DI water.
(§4) Image Capture. Whole cell fluorescence was visualized with an upright epiflourescence microscope (Leitz DiaPlan, Heerbrugg, Switzerland), and digital images were captured using a Spot-FLEX charge coupled device (CCD) camera (Diagnostic Instruments, Inc., Sterling Heights, Mich.). Images were collected using a 100× oil objective and constant exposure time (1.1 sec for experiment I; 3.0 sec for experiment 2) and gain of 2.

[2] = tested on: A. baumannii CBD1311; assay: as above; type: cell-based, Acinetobacter baumannii; details: for dF/dtcm (rate of ribosome synthesis) compared to the control: 90 minutes of levofloxacin treatment, 2 μg/mL
Description: as §1, §2, §3, §4

[3] = tested on: A. baumannii CBD1311; assay: Growth of antibiotic treated culture by optical density (OD); type: cell-based, Acinetobacter baumannii; details: resistant strain; doxycycline 8 μg/mL or levofloxacin 2 μg/mL
[4] = tested on: Acinetobacter lwoffii (ATCC 15309); assay: FISH-RiboSyn of antibiotic treated batch cultures (dF/dt); type: cell-based; details: in words
Description: Acinetobacter lwoffii (ATCC 15309) was cultured on nutrient agar plates inoculated from a frozen glycerol/bead stock. After incubation for 24 hours at 32° C., a single colony was removed from the plate with a sterile loop and streaked on a second nutrient agar plate. The sterile loop was then submerged in a test tube containing 10 mL of […] which was incubated for 12 hours and 1 mL of grown culture was added to 1 mL of 4% paraformaldehyde (PFA) and incubated for 1 hour. The sample was then centrifuged at 10,000 G for 5 minutes, the supernatant decanted, and the cell pellet resuspended in ethanol PBS. Fluorescence in situ hybridization (FISH) with a genus specific probe was performed on this sample to verify culture purity before proceeding with the experiment. After culture purity was verified, the plated culture was incubated for 24 hours and a single colony was picked with a sterile loop and transferred to a 10 mL test tube of nutrient broth and incubated for 14 hours. […] The optical density (OD at wavelength of 600 nm) of the culture was monitored over time until OD=0.449. […] These samples were then centrifuged at 10,000 G for 5 minutes, the supernatant decanted and cell pellets resuspended in ethanol PBS and stored at −20° C. until evaluated by FISH. […]
All images were analyzed using the Image-Pro Plus (v6.2.0.424) software package. […]

[5] = tested on: A. baumannii^T; assay: Growth of antibiotic treated culture by optical density (OD); type: cell-based, Acinetobacter baumannii; details: susceptible strain; doxycycline 8 μg/mL
Description: Culturing. Four Acinetobacter strains (Table 1) were maintained on nutrient agar (Difco) at 35° C. Prior to each experiment, a single colony was used to inoculate an overnight culture of nutrient broth (Difco). Experimental cultures were prepared by transferring 1 mL of culture to a flask containing 100 mL of nutrient broth. The relationship between optical density (OD at 600 nm) and cell concentration (CFU/mL) was determined by collecting samples between an OD of 0.1 and 0.6. The samples were serially diluted (10^−4-10^−7) in sterile nutrient broth and 100 μL of diluted sample was spread on nutrient agar plates in replicates of 5. After 24 hours of incubation at 35° C., colonies were counted on plates which contained between 20 and 200 colonies.
To test the effects of the antibiotic doxycycline, doxycycline (Fisher Scientific) stock solution (1 mg/mL) was added to 100-mL of fresh, sterile nutrient broth for a final concentration of 8 μg/mL. A sample from an actively growing culture (10 mL) was added to the doxycycline/nutrient broth for a final volume of 110 mL. The aforementioned transfers were performed for both the resistant strain A. baumannii CBD1311 (OD=0.378) and a susceptible strain A. baumannii^T (OD=0.324). […]

[6] = summary of susceptibility/resistance indicators

SMILES | indicator F distribution [1] | indicator Mean Finitial [1] | indicator dFdtcm [1] | indicator F distribution [2, 6] | indicator Mean Finitial [2, 6] | indicator dFdtcm [2, 6] | effect on growth (OD data) [3] | effect on ribosome synthesis [4] | effect on growth (OD data) [5] | initial mean whole cell fluorescence compared to the control ([2]; 90 minutes of levofloxacin exposure) | dF/dtcm (rate of ribosome synthesis) compared to the control [2] | dF/dtcm (rate of ribosome synthesis) compared to the control ([2]; listed as Levofloxacin)
C[C@H]1c2cccc(O)c2C(=O)C2=C(O)[C@]3(O)C(=O)C(C(N)=O)=C(O)[C@@H](N(C)C)[C@@H]3[C@@H](O)[C@@H]21 [doxycycline] | wide normal | ↑ | ↓ | normal | normal | ↑ | very slight suppression | cessation of ribosome synthesis detected after 30 minutes | immediately suppressed growth | – | – | –
C[C@H]1COc2c(N3CCN(C)CC3)c(F)cc3c(=O)c(C(=O)O)cn1c23 [levofloxacin] | – | ↑ | ↓ | – | normal | ↑ | no antibiotic impact | – | – | no difference | very similar for both the treated cells and the control | no observable impact
